Out of some 320,000 compounds screened, about 22,000 (6.9%) were called active. Inconclusive means that the source gave no clear call. Such entries were picked first, then a sample of the others. Calls follow the shape of the dose curve; as a rule, active = well fitted inhibition curve with a large enough effect; inconclusive = small, poorly fitted or top-dose-only effect, or another doubt; inactive = no such curve, though single readings can be large or run the other way. Where the call is inconclusive, the potency comes from a doubtful curve fit.
Experiment: Primary qHTS for delayed death inhibitors of the malarial parasite plastid, 96 hour incubation
Details: P. falciparum luciferase reporter growth; series mostly up to 28.7 µM; activity change, negative = inhibition: at the top concentration
In short: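 Readout is luminescence from an integrated firefly luciferase in P. falciparum. Red cells, 2% hematocrit and 0.05% parasitemia final, were cultured with compound through two parasite generations (96 hours) at 37 C, 5% CO2.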
For Cc1ccc(C(=O)c2coc3ccc(O)cc23)cc1, the “activity change, negative = inhibition” value was inactive: 462%.
In the case of CC(=O)C1=NN(c2ccccc2)C(c2cccs2)N1c1ccccc1 (centres undefined), the Potency is reported as active: 4.65 µM.
With CC1CCc2cc(F)ccc2N1C(=O)CSc1nnc(-c2cccs2)n1C (centres undefined) the Potency was inconclusive: 18.5 µM [inhibitor, single point].
In the case of CCOC(=O)c1cc(-c2ccc(F)cc2)n(CC(=O)NC(C)CC)c1C (centres undefined), the Potency is reported as inconclusive: 9.28 µM [inhibitor, single point].
For O=C1N=C(N2CCCCC2)S/C1=C\c1ccccc1F, the Potency was inconclusive: 18.5 µM [inhibitor, single point].
With COc1ccccc1OCCn1nnc2ccccc21 the “activity change, negative = inhibition” value was inactive: 4.64%.
With COc1cccc(-c2cc(C(F)(F)F)nc(-n3cccn3)n2)c1 the Potency was inconclusive: 18.5 µM [inhibitor, single point].
In the case of Cn1nccc1NC(=O)Nc1cccc([N+](=O)[O-])c1, the Potency is reported as inconclusive: 8.28 µM [inhibitor, partial curve, poor fit].
With COc1ccccc1N1CCN(C(=O)c2ccc(Cn3c(=S)[nH]c4cc5c(cc4c3=O)OCO5)cc2)CC1 the Potency was inconclusive: 2.08 µM [inhibitor, full curve, poor fit].
With Cc1c(Br)c([N+](=O)[O-])nn1CC(=O)c1ccccc1 the “activity change, negative = inhibition” value was inactive: 56.9%.
In the case of Cc1ccc(C2N(c3ccc(Cl)c(Cl)c3)C(=O)C3CCCN32)o1 (centres undefined), the Potency is reported as inconclusive: 10.4 µM [inhibitor, single point].
For COc1cccc(N2C(=O)NC(=O)/C(=C/c3ccc4c(c3)Cc3ccccc3-4)C2=O)c1, the “activity change, negative = inhibition” value was inactive: -10.3%.
For OC1CCN(Cc2ccc3ccccc3c2)CC1, the Potency was inconclusive: 18.5 µM [inhibitor, single point].
In the case of Cc1c(Cl)cnc(NC(=O)COC(=O)CCc2nc3ccccc3s2)c1Cl, the Potency is reported as inconclusive: 10.4 µM [inhibitor, single point].
In the case of CCCOc1ccc(NC(N)=O)cc1OCCC, the Potency is reported as inconclusive: 18.5 µM [inhibitor, single point].
For O=C(Nc1ccccc1Cl)Nc1cccnc1Cl, the Potency was inconclusive: 13.1 µM [inhibitor, single point].
In the case of CC(=O)Nc1ccc(S(=O)(=O)N2CCN(C(=O)C3COc4ccccc4O3)CC2)cc1 (centres undefined), the Potency is reported as inconclusive: 0.0026 µM [inhibitor, full curve, poor fit].
In the case of Cc1cccc(C(=O)NCC2CCN(C(=O)c3cccc(C)c3)CC2)c1, the Potency is reported as inconclusive: 10.4 µM [inhibitor, single point].
For O=C(CN(Cc1ccco1)Cc1cccs1)N1CCN(S(=O)(=O)c2cccc(F)c2)CC1, the Potency was inconclusive: 13.1 µM [inhibitor, single point].
% is scaled to controls: 0 for no effect and ±100 for the full control effect; potency is read from the fitted curve at half-maximal effect.
